The target in assay [1] is T1, human IL-6 (human, UniProt P05231 30-212). Nature of the assay: cell-based or functional assay.
Assay [2] addresses T1, human IL-6. The assay is described as follows: ELISA, captured Z-ABD, biotin-hIL-6 titrated. Background: ELISA stands for enzyme-linked immunosorbent assay.
Assay [3] deals with T1, human IL-6. The assay is described as follows: ELISA, captured Z-ABD, biotin-hIL-6 titrated. This is another data set of the same source.

Amino acid sequences for entries named in this document (tags omitted). Residues count along the entry.
UniProt P05231, 30-212 limits assumed: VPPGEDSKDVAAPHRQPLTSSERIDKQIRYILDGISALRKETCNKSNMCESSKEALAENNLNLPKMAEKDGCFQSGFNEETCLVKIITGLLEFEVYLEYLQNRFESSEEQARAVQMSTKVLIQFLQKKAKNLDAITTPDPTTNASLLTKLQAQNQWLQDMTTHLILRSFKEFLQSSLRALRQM

As a reminder, the EC50 is the concentration giving half of the maximal effect. A low value points to a more potent agent.

Like-named read-outs stand apart in the source and are kept apart here.

B1: Z06789-ABD (designed binder)
chain: MGSSLQVDAKYAKEERQAWWEIHSLPNLTVDQMAAFIVKLMDDPSQSSELLSEAKKLNDSQAPKVDGSLAEAKEAANAELDSYGVSDFYKRLIDKAKTVEGVEALKDAILAALP
Consider B1, for which the “IC50, IL-6 dependent growth of TF-1 cells” value (“IC50, IL-6 dependent growth” below) with human IL-6 [1] is ~100000 pM.

B2: Z06799-ABD (designed binder)
chain: MGSSLQVDAKYAKEEQRAWTEIHVLPNLTVQQMAAFITKLFDDPSQSSELLSEAKKLNDSQAPKVDGSLAEAKEAANAELDSYGVSDFYKRLIDKAKTVEGVEALKDAILAALP
B2: the “IC50, IL-6 dependent growth” value with human IL-6 [1] turned out to be 2400 pM.

B3: Z06809-ABD (designed binder)
chain: MGSSLQVDAKYAKEERDAWREIHALPNLTVDQLVAFITKLFDDPSQSSELLSEAKKLNDSQAPKVDGSLAEAKEAANAELDSYGVSDFYKRLIDKAKTVEGVEALKDAILAALP
On to B3, for which, in the assay with human IL-6 [1], the “IC50, IL-6 dependent growth” value was 10000 pM.

B4: Z06814 (designed binder)
chain: AQHDEALEVDAKYAKEEQRAWREIHLLPNLTIEQMAAFIWKLLDDPSQSSELLSEAKKLNDSQAPKVDYVLAEAKVLANRELDKYGVSDYYKNLINNAKTVEGVKALIDEILAALPYVPG
notes: domain: GA3; periplasmic ABD fusion
Regarding B4, the EC50 with human IL-6 [2] turned out to be 320 pM; in the assay with human IL-6 [3], 290 pM.

B5: Z15141 (designed binder)
chain: AQHDEALEVDAKYAKEEYEAWVEIHNLPNLTITQMAAFITKLFDDPSQSSELLSEAKKLNDSQAPKVDYVLAEAKVLANRELDKYGVSDYYKNLINNAKTVEGVKALIDEILAALPYVPG
notes: as for B4
With B5, a half-maximal effect in the assay with human IL-6 [2] (EC50) was put at 230 pM.

B6: Z15097 (designed binder)
chain: AQHDEALEVDAKYAKEEARAWHEIHILPNLTIDQMAAFITKLFDDPSQSSELLSEAKKLNDSQAPKVDYVLAEAKVLANRELDKYGVSDYYKNLINNAKTVEGVKALIDEILAALPYVPG
notes: as for B4
B6 returned an EC50 with human IL-6 [2] of 220 pM.

B7: Z15145 (designed binder)
chain: AQHDEALEVDAKYAKEEYKAWHEIHILPNLTVDQMAAFITKLFDDPSQSSELLSEAKKLNDSQAPKVDYVLAEAKVLANRELDKYGVSDYYKNLINNAKTVEGVKALIDEILAALPYVPG
notes: as for B4
In turn, B7 showed an EC50 with human IL-6 [2] of 230 pM.

B8: Z15053 (designed binder)
chain: AQHDEALEVDAKYAKEEKQAWVEIHNLPNLTITQMAAFITKLFDDPSQSSELLSEAKKLNDSQAPKVDYVLAEAKVLANRELDKYGVSDYYKNLINNAKTVEGVKALIDEILAALPYVPG
notes: as for B4
On to B8, for which the EC50 with human IL-6 [2] was determined as 240 pM.

B9: Z15024 (designed binder)
chain: AQHDEALEVDAKYAKEEYEAWMEIHLLPNLTVEQIAAFITKLFDDPSQSSELLSEAKKLNDSQAPKVDYVLAEAKVLANRELDKYGVSDYYKNLINNAKTVEGVKALIDEILAALPYVPG
notes: as for B4
B9 had an EC50 with human IL-6 [2] of 310 pM.

B10: Z15102 (designed binder)
chain: AQHDEALEVDAKYAKEEKKAWYEIHLLPNLTIEQMAAFITKLFDDPSQSSELLSEAKKLNDSQAPKVDYVLAEAKVLANRELDKYGVSDYYKNLINNAKTVEGVKALIDEILAALPYVPG
notes: as for B4
Molecule B10 came in with an EC50 with human IL-6 [2] of 210 pM.

B11: Z15057 (designed binder)
chain: AQHDEALEVDAKYAKEEQRAWYEIHILPNLTIDQMAAFITKLFDDPSQSSELLSEAKKLNDSQAPKVDYVLAEAKVLANRELDKYGVSDYYKNLINNAKTVEGVKALIDEILAALPYVPG
notes: as for B4
B11 displayed a concentration giving a half-maximal response (EC50) with human IL-6 [2] of 230 pM.

B12: Z15164 (designed binder)
chain: AQHDEALEVDAKYAKEEAYAWKEIHLLPNLTIEQMAAFISKLFDDPSQSSELLSEAKKLNDSQAPKVDYVLAEAKVLANRELDKYGVSDYYKNLINNAKTVEGVKALIDEILAALPYVPG
notes: as for B4
The molecule B12 came in with an EC50 with human IL-6 [2] of 200 pM.

B13: Z15031 (designed binder)
chain: AQHDEALEVDAKYAKEEAYAWKEIHLLPNLTVDQMAAFITKLFDDPSQSSELLSEAKKLNDSQAPKVDYVLAEAKVLANRELDKYGVSDYYKNLINNAKTVEGVKALIDEILAALPYVPG
notes: as for B4
Take B13: in the assay with human IL-6 [2], the EC50 was determined as 210 pM.

B14: Z15025 (designed binder)
chain: AQHDEALEVDAKYAKEERDAWFEIHKLPNLTVDQMAAFITKLFDDPSQSSELLSEAKKLNDSQAPKVDYVLAEAKVLANRELDKYGVSDYYKNLINNAKTVEGVKALIDEILAALPYVPG
notes: as for B4
Consider B14, for which a half-maximal response in the assay with human IL-6 [2] (EC50) required 210 pM.

B15: Z15111 (designed binder)
chain: AQHDEALEVDAKYAKEEARAWTEIHLLPNLTVDQMAAFITKLFDDPSQSSELLSEAKKLNDSQAPKVDYVLAEAKVLANRELDKYGVSDYYKNLINNAKTVEGVKALIDEILAALPYVPG
notes: as for B4
On to B15, for which the EC50 in the assay with human IL-6 [2] was determined as 230 pM.

B16: Z15126 (designed binder)
chain: AQHDEALEVDAKYAKEERNAWYEIHLLPNLTVEQMAAFITKLFDDPSQSSELLSEAKKLNDSQAPKVDYVLAEAKVLANRELDKYGVSDYYKNLINNAKTVEGVKALIDEILAALPYVPG
notes: as for B4
In the case of B16, the EC50 in the assay with human IL-6 [2] was 150 pM.

B17: Z15036 (designed binder)
chain: AQHDEALEVDAKYAKEEYEAWFEIHALPNLTVEQMAAFITKLFDDPSQSSELLSEAKKLNDSQAPKVDYVLAEAKVLANRELDKYGVSDYYKNLINNAKTVEGVKALIDEILAALPYVPG
notes: as for B4
In the assay with human IL-6 [2], B17 had an EC50 of 240 pM.

B18: Z15042 (designed binder)
chain: AQHDEALEVDAKYAKEEYFAWWEIHKLPNLTVNQMAAFITKLFDDPSQSSELLSEAKKLNDSQAPKVDYVLAEAKVLANRELDKYGVSDYYKNLINNAKTVEGVKALIDEILAALPYVPG
notes: as for B4
As to B18, the concentration for a half-maximal effect (EC50) with human IL-6 [2] came to 220 pM.

B19: Z15117 (designed binder)
chain: AQHDEALEVDAKYAKEERSAWMEIHLLPNLTVDQMAAFITKLFDDPSQSSELLSEAKKLNDSQAPKVDYVLAEAKVLANRELDKYGVSDYYKNLINNAKTVEGVKALIDEILAALPYVPG
notes: as for B4
In the assay with human IL-6 [2], B19 gave a half-maximal effective concentration (EC50) of 210 pM.

B20: Z15151 (designed binder)
chain: AQHDEALEVDAKYAKEEREAWMEIHLLPNLTIDQMAAFITKLFDDPSQSSELLSEAKKLNDSQAPKVDYVLAEAKVLANRELDKYGVSDYYKNLINNAKTVEGVKALIDEILAALPYVPG
notes: as for B4
In turn, B20 gave an EC50 with human IL-6 [2] of 190 pM.

B21: Z11632 (designed binder)
chain: AQHDEALEVDAKYAKEEREAWFEIHTLPNLTVSQMAAFISKLFDDPSQSSELLSEAKKLNDSQAPKVDYVLAEAKVLANRELDKYGVSDYYKNLINNAKTVEGVKALIDEILAALPYVPG
notes: as for B4
For the molecule B21, the EC50 was 250 pM with human IL-6 [2] and 190 pM in the assay with human IL-6 [3].

B22: Z15162 (designed binder)
chain: AQHDEALEVDAKYAKEEKIAWYEIHLLPNLTVNQIAAFITKLFDDPSQSSELLSEAKKLNDSQAPKVDYVLAEAKVLANRELDKYGVSDYYKNLINNAKTVEGVKALIDEILAALPYVPG
notes: as for B4
Molecule B22 had an EC50 with human IL-6 [2] of 180 pM.

B23: Z15129 (designed binder)
chain: AQHDEALEVDAKYAKEEREAWFEIHILPNLTIDQMAAFITKLFDDPSQSSELLSEAKKLNDSQAPKVDYVLAEAKVLANRELDKYGVSDYYKNLINNAKTVEGVKALIDEILAALPYVPG
notes: as for B4
In the assay with human IL-6 [2], B23 had a concentration for a half-maximal effect (EC50) of 210 pM.

B24: Z15122 (designed binder)
chain: AQHDEALEVDAKYAKEERHAWYEIHLLPNLTIDQMAAFISKLFDDPSQSSELLSEAKKLNDSQAPKVDYVLAEAKVLANRELDKYGVSDYYKNLINNAKTVEGVKALIDEILAALPYVPG
notes: as for B4
With B24, the EC50 with human IL-6 [2] is 170 pM.

B25: Z15142 (designed binder)
chain: AQHDEALEVDAKYAKEERMAWYEIHSLPNLTVDQMAAFITKLFDDPSQSSELLSEAKKLNDSQAPKVDYVLAEAKVLANRELDKYGVSDYYKNLINNAKTVEGVKALIDEILAALPYVPG
notes: as for B4
Turning to B25, the EC50 with human IL-6 [2] stood at 160 pM.

B26: Z15140 (designed binder)
chain: AQHDEALEVDAKYAKEEYEAWTEIHLLPNLTIEQMAAFITKLFDDPSQSSELLSEAKKLNDSQAPKVDYVLAEAKVLANRELDKYGVSDYYKNLINNAKTVEGVKALIDEILAALPYVPG
notes: as for B4
Regarding B26, in the assay with human IL-6 [2], the concentration for a half-maximal effect (EC50) amounted to 210 pM.

B27: Z15082 (designed binder)
chain: AQHDEALEVDAKYAKEEAKAWYEIHILPNLTVDQIAAFITKLFDDPSQSSELLSEAKKLNDSQAPKVDYVLAEAKVLANRELDKYGVSDYYKNLINNAKTVEGVKALIDEILAALPYVPG
notes: as for B4
The molecule B27 showed an EC50 with human IL-6 [2] of 220 pM.

B28: Z15159 (designed binder)
chain: AQHDEALEVDAKYAKEEYKAWVEIHLLPNLTVDQIAAFITKLFDDPSQSSELLSEAKKLNDSQAPKVDYVLAEAKVLANRELDKYGVSDYYKNLINNAKTVEGVKALIDEILAALPYVPG
notes: as for B4
For B28, the EC50 with human IL-6 [2] is 180 pM.

B29: Z15110 (designed binder)
chain: AQHDEALEVDAKYAKEERRAWTEIHSLPNLTIDQMAAFITKLFDDPSQSSELLSEAKKLNDSQAPKVDYVLAEAKVLANRELDKYGVSDYYKNLINNAKTVEGVKALIDEILAALPYVPG
notes: as for B4
B29: the EC50 with human IL-6 [2] was 200 pM.

B30: Z15067 (designed binder)
chain: AQHDEALEVDAKYAKEEARAWREIHALPNLTIDQMAAFITKLFDDPSQSSELLSEAKKLNDSQAPKVDYVLAEAKVLANRELDKYGVSDYYKNLINNAKTVEGVKALIDEILAALPYVPG
notes: as for B4
B30 had an EC50 with human IL-6 [2] of 220 pM.

B31: Z15015 (designed binder)
chain: AQHDEALEVDAKYAKEERDAWWEIHALPNLTVEQMAAFITKLFDDPSQSSELLSEAKKLNDSQAPKVDYVLAEAKVLANRELDKYGVSDYYKNLINNAKTVEGVKALIDEILAALPYVPG
notes: as for B4
B31 displayed an EC50 with human IL-6 [2] of 180 pM.

B32: Z15079 (designed binder)
chain: AQHDEALEVDAKYAKEERYAWNEIHKLPNLTVDQMAAFITKLFDDPSQSSELLSEAKKLNDSQAPKVDYVLAEAKVLANRELDKYGVSDYYKNLINNAKTVEGVKALIDEILAALPYVPG
notes: as for B4
In turn, B32 registered an EC50 with human IL-6 [2] of 210 pM.
